# Data from patent US20200340060A1, “COMPOSITIONS AND METHODS FOR IDENTIFYING AND TREATING LIVER DISEASES AND MONITORING TREATMENT OUTCOMES” (Gilead Sciences, Inc., priority 2017, published 2020).
# B1: KYNU (protein, UniProt Q16719 1-465, looked up)
# Kynureninase: MEPSSLELPADTVQRIAAELKCHPTDERVALHLDEEDKLRHFRECFYIPKIQDLPPVDLSLVNKDENAIYFLGNSLGLQPKMVKTYLEEELDKWAKIAAYGHEVGKRPWITGDESIVGLMKDIVGANEKEIALMNALTVNLHLLMLSFFKPTPKRYKILLEAKAFPSDHYAIESQLQLHGLNIEESMRMIKPREGEETLRIEDILEVIEKEGDSIAVILFSGVHFYTGQHFNIPAITKAGQAKGCYVGFDLAHAVGNVELYLHDWGVDFACWCSYKYLNAGAGGIAGAFIHEKHAHTIKPALVGWFGHELSTRFKMDNKLQLIPGVCGFRISNPPILLVCSLHASLEIFKQATMKALRKKSVLLTGYLEYLIKHNYGKDKAATKKPVVNIITPSHVEERGCQLTITFSVPNKDVFQELEKRGVVCDKRNPNGIRVAPVPLYNSFHDVYKFTNLLTSILDSAETKN
# B2: CD30 Ligand (protein, UniProt P32971 1-234, looked up)
# Tumor necrosis factor ligand …: MDPGLQQALNGMAPPGDTAMHVPAGSVASHLGTTSRSYFYLTTATLALCLVFTVATIMVLVVQRTDSIPNSPDNVPLKGGNCSEDLLCILKRAPFKKSWAYLQVAKHLNKTKLSWNKDGILHGVRYQDGNLVIQFPGLYFIICQLQFLVQCPNNSVDLKLELLINKHIKKQALVTVCESGMQTKHVYQNLSQFLLDYLQVNTTISVNVDTFQYIDTSTFPLENVLSIFLYSNSD
# B3: ERAB (protein, UniProt Q99714 2-261, looked up)
# 3-hydroxyacyl-CoA …: AAACRSVKGLVAVITGGASGLGLATAERLVGQGASAVLLDLPNSGGEAQAKKLGNNCVFAPADVTSEKDVQTALALAKGKFGRVDVAVNCAGIAVASKTYNLKKGQTHTLEDFQRVLDVNLMGTFNVIRLVAGEMGQNEPDQGGQRGVIINTASVAAFEGQVGQAAYSASKGGIVGMTLPIARDLAPIGIRVMTIAPGLFGTPLLTSLPEKVCNFLASQVPFPSRLGDPAEYAHLVQAIIENPFLNGEVIRLDGAIRMQP
# B4: IL24 (protein, UniProt Q13007 52-206, looked up)
# Interleukin-24: QEFHFGPCQVKGVVPQKLWEAFWAVKDTMQAQDNITSARLLQQEVLQNVSDAESCYLVHTLLEFYLKTVFKNYHNRTVEVRTLKSFSTLANNFVLIVSQLQPSQENEMFSIRDSAHRRFLLFRRAFKQLDVEAALTKALGEVDILLTWMQKFYKL
# B5: FCG3B (protein, UniProt O75015 17-200, looked up)
# Low affinity immunoglobulin …: GMRTEDLPKAVVFLEPQWYSVLEKDSVTLKCQGAYSPEDNSTQWFHNENLISSQASSYFIDAATVNDSGEYRCQTNLSTLSDPVQLEVHIGWLLLQAPRWVFKEEDPIHLRCHSWKNTALHKVTYLQNGKDRKYFHHNSDFHIPKATLKDSGSYFCRGLVGSKNVSSETVNITITQGLAVSTIS
# B6: sTie-2 (protein, UniProt Q02763 23-748, looked up)
# extracellular domain: AMDLILINSLPLVSDAETSLTCIASGWRPHEPITIGRDFEALMNQHQDPLEVTQDVTREWAKKVVWKREKASKINGAYFCEGRVRGEAIRIRTMKMRQQASFLPATLTMTVDKGDNVNISFKKVLIKEEDAVIYKNGSFIHSVPRHEVPDILEVHLPHAQPQDAGVYSARYIGGNLFTSAFTRLIVRRCEAQKWGPECNHLCTACMNNGVCHEDTGECICPPGFMGRTCEKACELHTFGRTCKERCSGQEGCKSYVFCLPDPYGCSCATGWKGLQCNEACHPGFYGPDCKLRCSCNNGEMCDRFQGCLCSPGWQGLQCEREGIQRMTPKIVDLPDHIEVNSGKFNPICKASGWPLPTNEEMTLVKPDGTVLHPKDFNHTDHFSVAIFTIHRILPPDSGVWVCSVNTVAGMVEKPFNISVKVLPKPLNAPNVIDTGHNFAVINISSEPYFGDGPIKSKKLLYKPVNHYEAWQHIQVTNEIVTLNYLEPRTEYELCVQLVRRGEGGEGHPGPVRRFTTASIGLPPPRGLNLLPKSQTTLNLTWQPIFPSSEDDFYVEVERRSVQKSDQQNIKVPGNLTSVLLNNLHPREQYVVRARVNTKAQGEWSEDLTAWTLSDILPPQPENIKISNITHSSAVISWTILDGYSISSITIRYKVQGKNEDQHVDVKIKNATITQYQLKGLEPETAYQVDIFAENNIGSSNPAFSHELVTLPESQAPADLGGGKMLL
# modifications: extracellular domain
# B7: CNTN2 (protein, UniProt Q02246 31-1012, looked up)
# Contactin-2: SQTTFGPVFEDQPLSVLFPEESTEEQVLLACRARASPPATYRWKMNGTEMKLEPGSRHQLVGGNLVIMNPTKAQDAGVYQCLASNPVGTVVSREAILRFGFLQEFSKEERDPVKAHEGWGVMLPCNPPAHYPGLSYRWLLNEFPNFIPTDGRHFVSQTTGNLYIARTNASDLGNYSCLATSHMDFSTKSVFSKFAQLNLAAEDTRLFAPSIKARFPAETYALVGQQVTLECFAFGNPVPRIKWRKVDGSLSPQWTTAEPTLQIPSVSFEDEGTYECEAENSKGRDTVQGRIIVQAQPEWLKVISDTEADIGSNLRWGCAAAGKPRPTVRWLRNGEPLASQNRVEVLAGDLRFSKLSLEDSGMYQCVAENKHGTIYASAELAVQALAPDFRLNPVRRLIPAARGGEILIPCQPRAAPKAVVLWSKGTEILVNSSRVTVTPDGTLIIRNISRSDEGKYTCFAENFMGKANSTGILSVRDATKITLAPSSADINLGDNLTLQCHASHDPTMDLTFTWTLDDFPIDFDKPGGHYRRTNVKETIGDLTILNAQLRHGGKYTCMAQTVVDSASKEATVLVRGPPGPPGGVVVRDIGDTTIQLSWSRGFDNHSPIAKYTLQARTPPAGKWKQVRTNPANIEGNAETAQVLGLTPWMDYEFRVIASNILGTGEPSGPSSKIRTREAAPSVAPSGLSGGGGAPGELIVNWTPMSREYQNGDGFGYLLSFRRQGSTHWQTARVPGADAQYFVYSNESVRPYTPFEVKIRSYNRRGDGPESLTALVYSAEEEPRVAPTKVWAKGVSSSEMNVTWEPVQQDMNGILLGYEIRYWKAGDKEAAADRVRTAGLDTSARVSGLHPNTKYHVTVRAYNRAGTGPASPSANATTMKPPPRRPPGNISWTFSSSSLSIKWDPVVPFRNESAVTGYKMLYQNDLHLTPTLHLTGKNWIEIPVPEDIGHALVQIRTTGPGGDGIPAEVHIVRNGGTSMMVEN
# B8: AK1A1 (protein, UniProt P14550 2-325, looked up)
# Aldo-keto reductase family 1 …: AASCVLLHTGQKMPLIGLGTWKSEPGQVKAAVKYALSVGYRHIDCAAIYGNEPEIGEALKEDVGPGKAVPREELFVTSKLWNTKHHPEDVEPALRKTLADLQLEYLDLYLMHWPYAFERGDNPFPKNADGTICYDSTHYKETWKALEALVAKGLVQALGLSNFNSRQIDDILSVASVRPAVLQVECHPYLAQNELIAHCQARGLEVTAYSPLGSSDRAWRDPDEPVLLEEPVVLALAEKYGRSPAQILLRWQVQRKVICIPKSITPSRILQNIKVFDFTFSPEEMKQLNALNKNWRYIVPMLTVDGKRVPRDAGHPLYPFNDPY
# B9: Nectin-like protein 2 (protein, UniProt Q8N126 25-398, looked up)
# Cell adhesion molecule 3: NLSQDDSQPWTSDETVVAGGTVVLKCQVKDHEDSSLQWSNPAQQTLYFGEKRALRDNRIQLVTSTPHELSISISNVALADEGEYTCSIFTMPVRTAKSLVTVLGIPQKPIITGYKSSLREKDTATLNCQSSGSKPAARLTWRKGDQELHGEPTRIQEDPNGKTFTVSSSVTFQVTREDDGASIVCSVNHESLKGADRSTSQRIEVLYTPTAMIRPDPPHPREGQKLLLHCEGRGNPVPQQYLWEKEGSVPPLKMTQESALIFPFLNKSDSGTYGCTATSNMGSYKAYYTLNVNDPSPVPSSSSTYHAIIGGIVAFIVFLLLIMLIFLGHYLIRHKGTYLTHEAKGSDDAPDADTAIINAEGGQSGGDDKKEYFI
# B10: FLRT3 (protein, UniProt Q9NZU0 29-649, looked up)
# Leucine-rich repeat …: KSCPSVCRCDAGFIYCNDRFLTSIPTGIPEDATTLYLQNNQINNAGIPSDLKNLLKVERIYLYHNSLDEFPTNLPKYVKELHLQENNIRTITYDSLSKIPYLEELHLDDNSVSAVSIEEGAFRDSNYLRLLFLSRNHLSTIPWGLPRTIEELRLDDNRISTISSPSLQGLTSLKRLVLDGNLLNNHGLGDKVFFNLVNLTELSLVRNSLTAAPVNLPGTNLRKLYLQDNHINRVPPNAFSYLRQLYRLDMSNNNLSNLPQGIFDDLDNITQLILRNNPWYCGCKMKWVRDWLQSLPVKVNVRGLMCQAPEKVRGMAIKDLNAELFDCKDSGIVSTIQITTAIPNTVYPAQGQWPAPVTKQPDIKNPKLTKDHQTTGSPSRKTITITVKSVTSDTIHISWKLALPMTALRLSWLKLGHSPAFGSITETIVTGERSEYLVTALEPDSPYKVCMVPMETSNLYLFDETPVCIETETAPLRMYNPTTTLNREQEKEPYKNPNLPLAAIIGGAVALVTIALLALVCWYVHRNGSLFSRNCAYSKGRRRKDDYAEAGTKKDNSILEIRETSFQMLPISNEPISKEEFVIHTIFPPNGMNLYKNNHSESSSNRSYRDSGIPDSDHSHS
# B11: PCSK7 (protein, UniProt Q16549 142-785, looked up)
# Proprotein convertase …: SVHFNDPKYPQQWHLNNRRSPGRDINVTGVWERNVTGRGVTVVVVDDGVEHTIQDIAPNYSPEGSYDLNSNDPDPMPHPDVENGNHHGTRCAGEIAAVPNNSFCAVGVAYGSRIAGIRVLDGPLTDSMEAVAFNKHYQINDIYSCSWGPDDDGKTVDGPHQLGKAALQHGVIAGRQGFGSIFVVASGNGGQHNDNCNYDGYANSIYTVTIGAVDEEGRMPFYAEECASMLAVTFSGGDKMLRSIVTTDWDLQKGTGCTEGHTGTSAAAPLAAGMIALMLQVRPCLTWRDVQHIIVFTATRYEDRRAEWVTNEAGFSHSHQHGFGLLNAWRLVNAAKIWTSVPYLASYVSPVLKENKAIPQSPRSLEVLWNVSRMDLEMSGLKTLEHVAVTVSITHPRRGSLELKLFCPSGMMSLIGAPRSMDSDPNGFNDWTFSTVRCWGERARGTYRLVIRDVGDESFQVGILRQWQLTLYGSVWSAVDIRDRQRLLESAMSGKYLHDDFALPCPPGLKIPEEDGYTITPNTLKTLVLVGCFTVFWTVYYMLEVYLSQRNVASNQVCRSGPCHWPHRSRKAKEEGTELESVPLCSSKDPDEVETESRGPPTTSDLLAPDLLEQGDWSLSQNKSALDCPHQHLDVPHGKEEQIC
# Test: SOMAscan serum proteomics in NASH subjects treated with selonsertib/simtuzumab, baseline and week 24
# Set-up: species or system human
# Details: serum protein marker level; CRN fibrosis stage improvers; week 24 vs baseline
row,Molecule,Median percent CHG at W24 in improver [%]
1,B1,−26.22
2,B2,−4.89

# Same assay, conditions: serum protein marker level; CRN fibrosis stage non-improvers; week 24 vs baseline
row,Molecule,Median percent CHG at W24 in Non-improver [%]
1,B1,−8.6
2,B2,−0.44

# Same assay, conditions: serum protein marker level; lobular inflammation improvers; week 24 vs baseline
row,Molecule,Median percent CHG at W24 in improver [%]
1,B3,−26.665
2,B4,−3.985
3,B5,−14.29

# Same assay, conditions: serum protein marker level; lobular inflammation non-improvers; week 24 vs baseline
row,Molecule,Median percent CHG at W24 in Non-improver [%]
1,B3,2.01
2,B4,2.03
3,B5,−1.44

# Same assay, conditions: serum protein marker level; steatosis improvers; week 24 vs baseline
row,Molecule,Median percent CHG at W24 in improver [%]
1,B1,−30.97
2,B2,−9.18
3,B6,−8.34
4,B7,−6.28
5,B8,−28.48
6,B9,−7.93
7,B10,−10.72
8,B11,−3.57

# Same assay, conditions: serum protein marker level; steatosis non-improvers; week 24 vs baseline
row,Molecule,Median percent CHG at W24 in Non-improver [%]
1,B1,−6.785
2,B2,0.81
3,B6,−0.925
4,B7,3.91
5,B8,−8.95
6,B9,7.925
7,B10,3.09
8,B11,7.995
